PMC5289628
No constants are given. Whether binding was seen depends on the method and setting. Binding seen in cells or lysates may run through a third protein. Some binding calls cover weakened binding; strength is not graded here.

Chains of the proteins cited; added tags and fusions are not shown. Lines headed by an entry give the natural chain unless they say otherwise; changes in a name come on top. A line that says so, or that is headed by a name, gives the form on record, which may keep a tag or linker.
UniProt P24344: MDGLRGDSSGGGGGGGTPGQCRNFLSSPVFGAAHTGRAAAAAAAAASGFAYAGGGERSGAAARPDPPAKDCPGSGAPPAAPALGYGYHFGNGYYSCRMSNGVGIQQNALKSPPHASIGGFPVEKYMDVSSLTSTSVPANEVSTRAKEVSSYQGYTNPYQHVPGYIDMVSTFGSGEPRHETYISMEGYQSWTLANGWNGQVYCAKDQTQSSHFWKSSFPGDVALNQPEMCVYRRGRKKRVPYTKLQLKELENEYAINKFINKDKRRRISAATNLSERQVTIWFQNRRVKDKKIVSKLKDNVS
3xFLAG-HOXA10 (E1C8Y7, form named): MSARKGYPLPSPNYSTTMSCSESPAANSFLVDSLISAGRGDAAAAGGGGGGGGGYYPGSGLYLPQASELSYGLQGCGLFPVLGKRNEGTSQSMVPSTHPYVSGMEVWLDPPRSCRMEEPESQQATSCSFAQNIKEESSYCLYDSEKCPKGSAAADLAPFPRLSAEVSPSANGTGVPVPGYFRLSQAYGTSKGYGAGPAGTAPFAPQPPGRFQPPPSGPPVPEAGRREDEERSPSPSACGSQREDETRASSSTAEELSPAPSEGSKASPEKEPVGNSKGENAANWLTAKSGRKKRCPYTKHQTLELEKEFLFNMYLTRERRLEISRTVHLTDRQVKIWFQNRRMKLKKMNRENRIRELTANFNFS

Molecular target: T1, CTCF (the CCCTC-binding factor), endogenous (chicken (endogenous in DF1)) (UniProt Q08705)
T1 sequence: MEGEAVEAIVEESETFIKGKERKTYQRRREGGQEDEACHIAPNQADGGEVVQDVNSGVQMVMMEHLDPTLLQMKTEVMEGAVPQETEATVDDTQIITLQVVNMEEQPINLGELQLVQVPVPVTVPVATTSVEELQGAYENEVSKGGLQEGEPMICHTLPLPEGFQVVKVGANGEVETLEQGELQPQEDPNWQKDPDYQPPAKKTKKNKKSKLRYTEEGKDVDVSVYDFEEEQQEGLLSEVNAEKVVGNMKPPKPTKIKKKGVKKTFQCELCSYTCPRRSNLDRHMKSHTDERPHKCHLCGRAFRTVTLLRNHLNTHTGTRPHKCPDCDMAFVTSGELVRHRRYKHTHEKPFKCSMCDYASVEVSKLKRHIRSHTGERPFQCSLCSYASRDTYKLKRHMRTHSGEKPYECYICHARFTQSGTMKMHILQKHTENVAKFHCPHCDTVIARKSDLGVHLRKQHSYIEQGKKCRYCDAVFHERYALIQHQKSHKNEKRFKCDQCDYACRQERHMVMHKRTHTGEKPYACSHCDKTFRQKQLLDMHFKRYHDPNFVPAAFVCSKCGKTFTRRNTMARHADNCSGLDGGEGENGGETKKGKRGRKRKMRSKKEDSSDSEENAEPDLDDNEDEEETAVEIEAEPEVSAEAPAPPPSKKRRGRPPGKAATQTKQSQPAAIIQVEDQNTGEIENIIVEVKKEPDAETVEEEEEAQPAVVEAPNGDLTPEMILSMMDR
Experiment: proximity ligation; Duolink In Situ PLA in chicken DF1 cells fixed with 4% PFA; primary antibodies m-αFLAG M2 + rb-αCTCF (FLAG-HOX and CTCF) or m-αHA + rb-αRAD21 (HA-CTCF and RAD21); confocal imaging, contacts counted per nucleus

binding	Substance
binds weakly	3xFLAG-HOXD13 (from UniProt P24344 1-301)
binds	3xFLAG-HOXA10 (from UniProt E1C8Y7 1-364)
